Test results reported in patent US10538554B2, “Peptides and uses therefor as antiviral agents” (priority 2015, dated 2020).
Some of these results come from one statement about several compounds together. For at least one compound, name, drawing or mass did not settle the structure. Bridge positions count the residues as written; N and C are the ends. Square brackets hold non-standard residues; d marks the D form. Peptide text beside a SMILES is read from it.

How the values were obtained:
MDCK cells = assay: Cytotoxicity assay on MDCK cells (CellTiter 96 AQueous One); settings: 0.1-100 μM peptide, 48 hours
A549 cells = assay: Cytotoxicity assay on A549 cells (CellTiter 96 AQueous One); settings: 0.1-100 μM peptide, 48 hours

SMILES	CE50 (Cytotoxic Effect 50) (MDCK cells)	CE50 (Cytotoxic Effect 50) (A549 cells)
CC[C@@H](C)[C@H]1NC(=O)[C@@H](Cc2ccccc2)NC(=O)[C@@H]([C@H](C)O)NC(=O)[C@@H](Cc2ccccc2)NC(=O)[C@@H](Cc2c[nH]c3ccccc23)NC(=O)[C@@H](Cc2c[nH]c3ccccc23)NC(=O)[C@H](NC(=O)[C@H](CCCCN)NC(=O)[C@H](CCCCN)NC(=O)[C@H](CCCNC(=N)N)NC(=O)[C@@H](N)CCCNC(=N)N)CSSC[C@H](C(=O)O)NC(=O)[C@@H](C)NC1=O [PSP VI A1, H-RRKKcwwftfiac-OH] (H-RRKK[dC][dW][dW][dF][dT][dF][dI][dA][dC]-OH; disulfide 5-13)	more than 30 μM	more than 30 μM
CC[C@@H](C)[C@H]1NC(=O)[C@@H](Cc2ccccc2)NC(=O)[C@@H]([C@H](C)O)NC(=O)[C@@H](Cc2ccccc2)NC(=O)[C@@H](Cc2c[nH]c3ccccc23)NC(=O)[C@@H](Cc2c[nH]c3ccccc23)NC(=O)[C@H](NC(=O)[C@H](CCCCN)NC(=O)[C@H](CCCCN)NC(=O)[C@H](CCCNC(=N)N)NC(=O)[C@@H](N)CCCNC(=N)N)CSSC[C@H](C(=O)O)NC(=O)[C@@H](CC(N)=O)NC1=O [PSP V A19, H-RRKKcwwftfinc-OH] (H-RRKK[dC][dW][dW][dF][dT][dF][dI][dN][dC]-OH; disulfide 5-13)	more than 30 μM	more than 30 μM
